From the supplement of paper PMC12823440, “Inhibitors supercharge kinase turnover through native proteolytic circuits” (Nature, 2025)
This is one part of the list. The calls rarely recur for the same compound in another form.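 Kinases were expressed as nanoluciferase fusions in K562 cells and luminescence was read every 4 h between 2 and 18 h as percent of control, DMSO set to 100% and a positive control to 0%. A time point counts as decreased when the signal drops significantly (2 sigma). The hit call is the authors' own, does not follow from the count of time points alone, and its rule is not shown.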

Protein sequences, listed by entry. Tags and fused reporters are not part of them. Lines headed by an entry give the natural chain unless they say otherwise; changes in a name come on top.
UniProt P29317, whole entry: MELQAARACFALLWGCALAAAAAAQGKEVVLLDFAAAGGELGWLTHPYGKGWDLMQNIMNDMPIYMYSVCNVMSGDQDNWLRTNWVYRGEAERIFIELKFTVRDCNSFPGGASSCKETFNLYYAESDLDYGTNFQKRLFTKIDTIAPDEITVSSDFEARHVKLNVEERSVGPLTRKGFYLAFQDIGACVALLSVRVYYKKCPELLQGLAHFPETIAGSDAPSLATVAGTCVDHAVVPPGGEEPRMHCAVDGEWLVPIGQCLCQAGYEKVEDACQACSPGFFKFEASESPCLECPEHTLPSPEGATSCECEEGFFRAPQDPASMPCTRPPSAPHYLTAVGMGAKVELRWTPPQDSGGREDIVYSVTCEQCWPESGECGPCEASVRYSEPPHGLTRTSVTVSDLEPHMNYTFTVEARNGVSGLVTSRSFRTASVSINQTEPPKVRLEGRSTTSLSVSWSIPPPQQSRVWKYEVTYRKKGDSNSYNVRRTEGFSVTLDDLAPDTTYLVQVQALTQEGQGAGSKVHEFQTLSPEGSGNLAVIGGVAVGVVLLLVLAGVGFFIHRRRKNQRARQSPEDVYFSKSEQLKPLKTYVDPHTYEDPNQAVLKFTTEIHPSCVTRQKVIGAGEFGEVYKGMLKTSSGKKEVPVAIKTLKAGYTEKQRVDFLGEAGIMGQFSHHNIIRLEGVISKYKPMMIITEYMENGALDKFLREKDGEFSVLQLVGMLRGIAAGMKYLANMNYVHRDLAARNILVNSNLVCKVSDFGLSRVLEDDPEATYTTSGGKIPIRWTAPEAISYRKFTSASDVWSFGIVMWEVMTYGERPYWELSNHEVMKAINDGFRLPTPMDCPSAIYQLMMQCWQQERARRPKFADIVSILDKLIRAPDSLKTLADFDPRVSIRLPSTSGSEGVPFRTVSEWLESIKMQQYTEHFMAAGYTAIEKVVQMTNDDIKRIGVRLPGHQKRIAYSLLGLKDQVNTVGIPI
UniProt Q15303, whole entry R711C: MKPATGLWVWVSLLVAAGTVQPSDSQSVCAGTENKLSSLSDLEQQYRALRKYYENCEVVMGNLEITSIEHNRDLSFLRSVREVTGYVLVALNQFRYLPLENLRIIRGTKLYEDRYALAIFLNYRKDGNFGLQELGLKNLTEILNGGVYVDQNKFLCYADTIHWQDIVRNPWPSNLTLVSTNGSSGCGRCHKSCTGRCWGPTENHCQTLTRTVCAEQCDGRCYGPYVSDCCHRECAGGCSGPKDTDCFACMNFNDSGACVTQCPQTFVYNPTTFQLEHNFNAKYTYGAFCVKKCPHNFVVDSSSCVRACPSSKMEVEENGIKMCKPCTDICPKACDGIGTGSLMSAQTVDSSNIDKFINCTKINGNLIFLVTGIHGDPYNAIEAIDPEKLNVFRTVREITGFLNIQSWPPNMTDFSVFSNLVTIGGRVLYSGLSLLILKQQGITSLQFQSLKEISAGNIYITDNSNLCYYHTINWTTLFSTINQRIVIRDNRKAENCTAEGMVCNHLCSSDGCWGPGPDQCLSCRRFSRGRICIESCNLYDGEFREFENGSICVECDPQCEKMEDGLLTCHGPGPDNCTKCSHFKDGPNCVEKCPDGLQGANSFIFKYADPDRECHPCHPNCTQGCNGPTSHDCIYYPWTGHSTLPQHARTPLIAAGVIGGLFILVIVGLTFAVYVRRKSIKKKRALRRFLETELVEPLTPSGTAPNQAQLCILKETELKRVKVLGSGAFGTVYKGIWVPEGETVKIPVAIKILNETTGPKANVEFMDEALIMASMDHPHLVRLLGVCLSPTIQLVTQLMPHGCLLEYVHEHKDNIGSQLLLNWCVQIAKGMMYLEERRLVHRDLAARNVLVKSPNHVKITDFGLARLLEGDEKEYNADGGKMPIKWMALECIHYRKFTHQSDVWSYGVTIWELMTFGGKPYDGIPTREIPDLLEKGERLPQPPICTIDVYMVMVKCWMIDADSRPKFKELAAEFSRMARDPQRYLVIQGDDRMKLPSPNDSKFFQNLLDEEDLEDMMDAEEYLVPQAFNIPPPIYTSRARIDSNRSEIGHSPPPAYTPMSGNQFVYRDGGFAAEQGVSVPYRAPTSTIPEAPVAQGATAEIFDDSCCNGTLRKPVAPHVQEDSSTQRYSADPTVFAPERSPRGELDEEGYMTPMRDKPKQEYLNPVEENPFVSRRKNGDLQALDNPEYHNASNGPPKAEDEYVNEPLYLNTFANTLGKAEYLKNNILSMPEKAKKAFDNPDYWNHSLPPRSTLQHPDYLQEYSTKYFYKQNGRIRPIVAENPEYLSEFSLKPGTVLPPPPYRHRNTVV
UniProt O75460: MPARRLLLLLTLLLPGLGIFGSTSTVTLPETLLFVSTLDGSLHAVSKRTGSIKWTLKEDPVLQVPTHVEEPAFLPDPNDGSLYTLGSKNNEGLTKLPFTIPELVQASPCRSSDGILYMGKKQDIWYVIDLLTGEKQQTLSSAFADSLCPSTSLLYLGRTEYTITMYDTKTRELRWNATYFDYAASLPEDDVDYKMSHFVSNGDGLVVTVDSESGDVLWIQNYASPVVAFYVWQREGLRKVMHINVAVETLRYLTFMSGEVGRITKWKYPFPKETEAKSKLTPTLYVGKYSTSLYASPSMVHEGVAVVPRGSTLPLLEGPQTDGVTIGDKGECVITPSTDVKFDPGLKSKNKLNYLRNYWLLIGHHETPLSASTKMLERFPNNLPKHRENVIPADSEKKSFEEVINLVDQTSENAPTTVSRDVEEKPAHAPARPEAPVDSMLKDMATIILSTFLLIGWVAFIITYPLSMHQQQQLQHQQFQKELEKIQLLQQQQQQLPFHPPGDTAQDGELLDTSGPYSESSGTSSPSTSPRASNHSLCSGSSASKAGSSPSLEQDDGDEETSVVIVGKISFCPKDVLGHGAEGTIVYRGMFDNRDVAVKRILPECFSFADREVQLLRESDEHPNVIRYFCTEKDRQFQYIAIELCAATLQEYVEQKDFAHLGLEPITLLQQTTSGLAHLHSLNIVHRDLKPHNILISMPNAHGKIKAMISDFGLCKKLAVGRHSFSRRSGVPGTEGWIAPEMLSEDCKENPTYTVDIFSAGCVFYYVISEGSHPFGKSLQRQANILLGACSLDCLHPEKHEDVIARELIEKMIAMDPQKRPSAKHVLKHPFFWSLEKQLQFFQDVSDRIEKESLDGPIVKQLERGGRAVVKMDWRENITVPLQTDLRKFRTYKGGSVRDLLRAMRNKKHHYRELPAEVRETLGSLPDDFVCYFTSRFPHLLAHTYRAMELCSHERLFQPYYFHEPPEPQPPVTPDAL
UniProt P11362, whole entry, looked up: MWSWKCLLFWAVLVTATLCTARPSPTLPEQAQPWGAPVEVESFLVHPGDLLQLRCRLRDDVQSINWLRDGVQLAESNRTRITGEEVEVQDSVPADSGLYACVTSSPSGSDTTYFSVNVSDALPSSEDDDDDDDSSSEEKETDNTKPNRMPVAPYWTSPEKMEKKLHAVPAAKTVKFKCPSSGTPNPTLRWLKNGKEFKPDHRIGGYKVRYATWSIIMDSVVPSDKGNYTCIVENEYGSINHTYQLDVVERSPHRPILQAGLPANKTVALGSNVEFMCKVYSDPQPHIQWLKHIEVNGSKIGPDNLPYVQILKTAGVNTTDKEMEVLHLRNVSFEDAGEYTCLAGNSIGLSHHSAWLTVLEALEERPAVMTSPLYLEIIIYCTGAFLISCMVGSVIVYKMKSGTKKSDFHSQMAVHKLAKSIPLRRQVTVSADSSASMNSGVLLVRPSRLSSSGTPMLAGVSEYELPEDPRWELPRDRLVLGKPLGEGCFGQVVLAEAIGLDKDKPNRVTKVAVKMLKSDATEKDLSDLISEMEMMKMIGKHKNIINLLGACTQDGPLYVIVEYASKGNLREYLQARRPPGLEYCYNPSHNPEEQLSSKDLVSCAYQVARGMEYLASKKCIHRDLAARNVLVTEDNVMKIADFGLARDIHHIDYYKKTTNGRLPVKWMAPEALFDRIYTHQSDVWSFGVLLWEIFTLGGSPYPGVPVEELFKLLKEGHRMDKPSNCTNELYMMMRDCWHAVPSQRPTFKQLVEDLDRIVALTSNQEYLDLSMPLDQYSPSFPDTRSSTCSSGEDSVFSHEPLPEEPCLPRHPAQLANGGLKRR
UniProt P21802, whole entry, looked up: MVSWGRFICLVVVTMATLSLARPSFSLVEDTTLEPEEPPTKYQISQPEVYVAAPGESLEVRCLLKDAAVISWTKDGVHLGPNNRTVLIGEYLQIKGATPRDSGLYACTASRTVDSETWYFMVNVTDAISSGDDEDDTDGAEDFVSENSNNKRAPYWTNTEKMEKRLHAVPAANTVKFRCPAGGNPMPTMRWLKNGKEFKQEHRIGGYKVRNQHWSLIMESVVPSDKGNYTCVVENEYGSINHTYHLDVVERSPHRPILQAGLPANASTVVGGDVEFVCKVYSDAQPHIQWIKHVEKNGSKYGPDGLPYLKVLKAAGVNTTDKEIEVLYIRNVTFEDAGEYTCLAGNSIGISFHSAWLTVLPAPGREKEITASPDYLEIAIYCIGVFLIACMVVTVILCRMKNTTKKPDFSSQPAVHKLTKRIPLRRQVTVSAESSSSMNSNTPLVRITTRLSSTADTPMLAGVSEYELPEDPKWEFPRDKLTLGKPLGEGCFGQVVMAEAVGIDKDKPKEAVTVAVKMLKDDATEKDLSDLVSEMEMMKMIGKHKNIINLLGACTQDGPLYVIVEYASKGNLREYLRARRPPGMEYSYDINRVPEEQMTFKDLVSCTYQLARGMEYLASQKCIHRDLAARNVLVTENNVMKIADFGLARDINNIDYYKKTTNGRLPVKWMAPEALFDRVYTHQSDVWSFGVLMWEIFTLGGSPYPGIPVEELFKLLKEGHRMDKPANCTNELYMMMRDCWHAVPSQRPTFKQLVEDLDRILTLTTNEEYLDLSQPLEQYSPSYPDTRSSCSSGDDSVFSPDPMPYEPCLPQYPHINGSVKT
UniProt P06241, whole entry, looked up: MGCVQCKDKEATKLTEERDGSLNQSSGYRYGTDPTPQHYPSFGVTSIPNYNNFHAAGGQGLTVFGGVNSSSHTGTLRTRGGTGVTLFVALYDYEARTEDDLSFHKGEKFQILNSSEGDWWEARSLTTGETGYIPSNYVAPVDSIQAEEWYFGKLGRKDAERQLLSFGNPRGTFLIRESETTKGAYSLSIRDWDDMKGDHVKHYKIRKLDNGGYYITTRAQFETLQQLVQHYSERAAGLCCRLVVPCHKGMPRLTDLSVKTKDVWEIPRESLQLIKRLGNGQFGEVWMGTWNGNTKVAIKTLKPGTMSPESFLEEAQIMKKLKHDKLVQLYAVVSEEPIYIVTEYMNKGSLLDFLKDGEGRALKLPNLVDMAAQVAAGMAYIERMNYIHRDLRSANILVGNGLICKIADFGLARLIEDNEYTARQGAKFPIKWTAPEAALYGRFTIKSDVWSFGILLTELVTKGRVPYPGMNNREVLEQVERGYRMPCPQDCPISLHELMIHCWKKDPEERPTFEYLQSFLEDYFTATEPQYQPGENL
UniProt P49840: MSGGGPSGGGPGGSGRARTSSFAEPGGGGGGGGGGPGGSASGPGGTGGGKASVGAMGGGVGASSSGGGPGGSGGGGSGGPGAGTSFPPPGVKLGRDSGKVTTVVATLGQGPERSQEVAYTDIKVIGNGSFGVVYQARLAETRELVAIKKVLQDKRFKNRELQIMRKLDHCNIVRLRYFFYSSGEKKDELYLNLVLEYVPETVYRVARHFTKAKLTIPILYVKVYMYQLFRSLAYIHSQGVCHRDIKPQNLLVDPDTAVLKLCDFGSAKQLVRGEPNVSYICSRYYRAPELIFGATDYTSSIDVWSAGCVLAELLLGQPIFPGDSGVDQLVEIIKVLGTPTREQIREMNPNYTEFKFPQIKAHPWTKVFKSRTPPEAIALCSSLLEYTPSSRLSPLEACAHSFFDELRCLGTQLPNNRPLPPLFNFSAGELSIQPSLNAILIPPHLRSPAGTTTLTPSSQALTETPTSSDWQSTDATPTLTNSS

Key:
Assay in all cases: kinase-Nluc reporter destabilization hit call (1 = scored as downregulated) (binary); higher = compound decreases kinase abundance
Conditions in all cases: K562; 2-18 h
[1] = molecular target: EGFR (UniProt P00533)
[2] = molecular target: EGFR_G719S (UniProt P00533)
[3] = molecular target: EGFR_G719S_T790M (UniProt P00533)
[4] = molecular target: EGFR_L718V (UniProt P00533)
[5] = molecular target: EGFR_L858R (UniProt P00533)
[6] = molecular target: EGFR_L861Q (UniProt P00533)
[7] = molecular target: EGFR_T790M (UniProt P00533)
[8] = molecular target: EPHA2 (UniProt P29317)
[9] = molecular target: ERBB3 (UniProt P21860)
[10] = molecular target: ERBB4_R711C (clone: ERBB4_mut) (UniProt Q15303)
[11] = molecular target: ERN1 (UniProt O75460)
[12] = molecular target: FGFR1 (UniProt P11362)
[13] = molecular target: FGFR2 (UniProt P21802)
[14] = molecular target: FGFR3 (UniProt P22607)
[15] = molecular target: FGR (UniProt P09769)
[16] = molecular target: FLT3 (UniProt P36888)
[17] = molecular target: FYN (UniProt P06241)
[18] = molecular target: GSK3A (UniProt P49840)
[19] = molecular target: HER2 (UniProt P04626)
[20] = molecular target: INSRR (UniProt P14616)

Measured: kinase-Nluc reporter destabilization hit call

COc1c(NC(=O)C(=O)c2ccc(OCCN3CCOCC3)c3ccccc23)cc(C(C)(C)C)cc1NS(C)(=O)=O (2.5 µM)
inactive: [1] 0 | [2] 0 | [3] 0 | [4] 0 | [5] 0 | [6] 0 | [7] 0 | [8] 0 | [9] 0 | [10] 0 | [11] 0 | [12] 0 | [13] 0 | [14] 0 | [15] 0 | [16] 0 | [17] 0 | [18] 0 | [19] 0 | [20] 0

CC(C)CC1(O)CCN(C(=O)c2ccc(NS(=O)(=O)c3cccc4nccnc34)cc2)CC1 (10 µM)
inactive: [1] 0 | [2] 0 | [3] 0 | [4] 0 | [5] 0 | [6] 0 | [7] 0 | [8] 0 | [9] 0 | [10] 0 | [11] 0 | [12] 0 | [13] 0 | [14] 0 | [15] 0 | [16] 0 | [17] 0 | [18] 0 | [19] 0 | [20] 0

C=C1C(=O)O[C@@H]2C[C@@]3(C)CCC[C@H](C)C3=C[C@H]12 [Alantolactone] (10 µM)
inactive: [1] 0 | [2] 0 | [3] 0 | [4] 0 | [5] 0 | [6] 0 | [7] 0 | [8] 0 | [9] 0 | [10] 0 | [11] 0 | [12] 0 | [13] 0 | [14] 0 | [15] 0 | [16] 0 | [17] 0 | [18] 0 | [19] 0 | [20] 0

CN(CC(=O)N(Cc1ccc(C2CCCCC2)cc1)c1ccc(C(=O)O)cc1)S(=O)(=O)c1c(F)c(F)c(F)c(F)c1F (2.5 µM)
inactive: [1] 0 | [2] 0 | [3] 0 | [4] 0 | [5] 0 | [6] 0 | [7] 0 | [8] 0 | [9] 0 | [10] 0 | [11] 0 | [12] 0 | [13] 0 | [14] 0 | [15] 0 | [16] 0 | [17] 0 | [18] 0 | [19] 0 | [20] 0

O=C(NCCO)c1ccc2c(c1)nc(Nc1cccc(Cl)c1)c1ccncc12 [CK2 inhibitor 2] (10 µM)
inactive: [1] 0 | [2] 0 | [3] 0 | [4] 0 | [5] 0 | [6] 0 | [7] 0 | [8] 0 | [9] 0 | [10] 0 | [11] 0 | [12] 0 | [13] 0 | [14] 0 | [15] 0 | [16] 0 | [17] 0 | [18] 0 | [19] 0 | [20] 0

Cc1cc2cc(Nc3ccnc(Nc4ccc5[nH]c(C)cc5c4)n3)ccc2[nH]1 (2.5 µM)
inactive: [1] 0 | [2] 0 | [3] 0 | [4] 0 | [5] 0 | [6] 0 | [7] 0 | [8] 0 | [9] 0 | [10] 0 | [11] 0 | [12] 0 | [13] 0 | [14] 0 | [15] 0 | [16] 0 | [17] 0 | [18] 0 | [19] 0 | [20] 0

CNc1nc(Nc2cnn(C3CCN(C4COC4)CC3F)c2Cl)ncc1C(F)(F)F (stereo not given) (10 µM)
inactive: [1] 0 | [2] 0 | [3] 0 | [4] 0 | [5] 0 | [6] 0 | [7] 0 | [8] 0 | [9] 0 | [10] 0 | [11] 0 | [12] 0 | [13] 0 | [14] 0 | [15] 0 | [16] 0 | [17] 0 | [18] 0 | [19] 0 | [20] 0

O=C1c2ccc(Nc3ccc(F)cc3F)cc2CCc2ccc(OC[C@H](O)CO)cc21 [Skepinone-L] (2.5 µM)
inactive: [1] 0 | [2] 0 | [3] 0 | [4] 0 | [5] 0 | [6] 0 | [7] 0 | [8] 0 | [9] 0 | [10] 0 | [11] 0 | [12] 0 | [13] 0 | [14] 0 | [15] 0 | [16] 0 | [17] 0 | [18] 0 | [19] 0 | [20] 0

O=C(CNC(=O)c1ccc(-c2ccccc2)cc1)NC1CCCc2ccccc21 (stereo not given) [TAO Kinase inhibitor 1] (10 µM)
inactive: [1] 0 | [2] 0 | [3] 0 | [4] 0 | [5] 0 | [6] 0 | [7] 0 | [8] 0 | [9] 0 | [10] 0 | [11] 0 | [12] 0 | [13] 0 | [14] 0 | [15] 0 | [16] 0 | [17] 0 | [18] 0 | [19] 0 | [20] 0

COc1cc(S(C)(=O)=O)ccc1Nc1nc2ccc(-c3ccc(NC(=O)[C@H](C)c4ccc(F)cc4)cc3)cn2n1 [Empesertib] (10 µM)
inactive: [1] 0 | [2] 0 | [3] 0 | [4] 0 | [5] 0 | [6] 0 | [7] 0 | [8] 0 | [9] 0 | [10] 0 | [11] 0 | [12] 0 | [13] 0 | [14] 0 | [15] 0 | [16] 0 | [17] 0 | [18] 0 | [19] 0 | [20] 0

c1cn2cc(-c3ccc4cn[nH]c4c3)nc(Nc3ccc(N4CCOCC4)cc3)c2n1 [Entospletinib] (10 µM)
inactive: [1] 0 | [2] 0 | [3] 0 | [4] 0 | [5] 0 | [6] 0 | [7] 0 | [8] 0 | [9] 0 | [10] 0 | [11] 0 | [12] 0 | [13] 0 | [14] 0 | [15] 0 | [16] 0 | [17] 0 | [18] 0 | [19] 0 | [20] 0

O=C(Nc1nc2ccccc2[nH]1)c1cccc(-n2cccc2)c1 (10 µM)
inactive: [1] 0 | [2] 0 | [3] 0 | [4] 0 | [5] 0 | [6] 0 | [7] 0 | [8] 0 | [9] 0 | [10] 0 | [11] 0 | [12] 0 | [13] 0 | [14] 0 | [15] 0 | [16] 0 | [17] 0 | [18] 0 | [19] 0 | [20] 0

COc1ccc(CC(=O)Nc2nc3c(s2)CCc2ccccc2-3)cc1OC (10 µM)
inactive: [1] 0 | [2] 0 | [3] 0 | [4] 0 | [5] 0 | [6] 0 | [7] 0 | [8] 0 | [9] 0 | [10] 0 | [11] 0 | [12] 0 | [13] 0 | [14] 0 | [15] 0 | [16] 0 | [17] 0 | [18] 0 | [19] 0 | [20] 0

CCn1c(C(=O)N(C2CC2)C2CC2)cc2c3c(ncn3C)c(Nc3cc(C)n(C)n3)nc21 (10 µM)
inactive: [1] 0 | [2] 0 | [3] 0 | [4] 0 | [5] 0 | [6] 0 | [7] 0 | [8] 0 | [9] 0 | [10] 0 | [11] 0 | [12] 0 | [13] 0 | [14] 0 | [15] 0 | [16] 0 | [17] 0 | [18] 0 | [19] 0 | [20] 0

COC1(C(=O)N2Cc3nc(Cl)nc(N[C@H](C)c4cc(N)cc(C(F)(F)F)c4)c3C2)CCOCC1 (10 µM)
inactive: [1] 0 | [2] 0 | [3] 0 | [4] 0 | [5] 0 | [6] 0 | [7] 0 | [8] 0 | [9] 0 | [10] 0 | [11] 0 | [12] 0 | [13] 0 | [14] 0 | [15] 0 | [16] 0 | [17] 0 | [18] 0 | [19] 0 | [20] 0

COc1ccc(Cl)cc1NC(=O)Nc1cc(C)nc2ccccc12 (2.5 µM)
inactive: [1] 0 | [2] 0 | [3] 0 | [4] 0 | [5] 0 | [6] 0 | [7] 0 | [8] 0 | [9] 0 | [10] 0 | [11] 0 | [12] 0 | [13] 0 | [14] 0 | [15] 0 | [16] 0 | [17] 0 | [18] 0 | [19] 0 | [20] 0

Fc1ccc(-c2nc(-c3c(F)cccc3F)[nH]c2-c2ccncc2)cc1 (10 µM)
inactive: [1] 0 | [2] 0 | [3] 0 | [4] 0 | [5] 0 | [6] 0 | [7] 0 | [8] 0 | [9] 0 | [10] 0 | [11] 0 | [12] 0 | [13] 0 | [14] 0 | [15] 0 | [16] 0 | [17] 0 | [18] 0 | [19] 0 | [20] 0

Looked up one by one from above (two):
COC1(C(=O)N2Cc3nc(Cl)nc(N[C@H](C)c4cc(N)cc(C(F)(F)F)c4)c3C2)CCOCC1 (10 µM)
inactive: [1] 0 | [2] 0 | [3] 0 | [4] 0 | [5] 0 | [6] 0 | [7] 0 | [8] 0 | [9] 0 | [10] 0 | [11] 0 | [12] 0 | [13] 0 | [14] 0 | [15] 0 | [16] 0 | [17] 0 | [18] 0 | [19] 0 | [20] 0

Fc1ccc(-c2nc(-c3c(F)cccc3F)[nH]c2-c2ccncc2)cc1 (10 µM)
inactive: [1] 0 | [2] 0 | [3] 0 | [4] 0 | [5] 0 | [6] 0 | [7] 0 | [8] 0 | [9] 0 | [10] 0 | [11] 0 | [12] 0 | [13] 0 | [14] 0 | [15] 0 | [16] 0 | [17] 0 | [18] 0 | [19] 0 | [20] 0

(more compounds)

CN1C(=O)C(Cc2c[nH]c3ccccc23)NC1=S (stereo not given) [Necrostatin-1] (10 µM)
inactive: [1] 0 | [2] 0 | [3] 0 | [4] 0 | [5] 0 | [6] 0 | [7] 0 | [8] 0 | [9] 0 | [10] 0 | [11] 0 | [12] 0 | [13] 0 | [14] 0 | [15] 0 | [16] 0 | [17] 0 | [18] 0 | [19] 0 | [20] 0
